In the supplement of paper PMC8728848:
Some of the results follow.

Tests used:
Assay in all cases: glycan array binding signal (z-score within array); higher = stronger binding
Settings in all cases: glycan notation: IUPAC condensed, linker removed
[1] = target: Man(a1-2)Man(a1-2)Man(a1-6)[Man(a1-3)]Man
Outline: (§1)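 Negative Z-scores can be read as non-binding. The Z-score is calculated within each array and then averaged across arrays of one protein sequence at different concentrations or buffers and across linkers. Arrays, 3228 in all, were curated from the Consortium for Functional Glycomics database and kept only where the protein sequence was available.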

Man(a1-2)Man(a1-3)Man = target: Man(a1-2)Man(a1-3)Man
Outline: as §1

[2] = target: Man(a1-2)Man(a1-3)[Man(a1-2)Man(a1-6)]Man
Outline: as §1

[3] = target: Man(a1-2)Man(a1-3)[Man(a1-3)[Man(a1-6)]Man(a1-6)]Man(b1-4)GlcNAc(b1-4)GlcNAc
Outline: as §1

[4] = target: Man(a1-2)Man(a1-3)[Man(a1-6)]Man(a1-6)[Man(a1-2)Man(a1-3)]Man(b1-4)GlcNAc(b1-4)GlcNAc
Outline: as §1

Man(a1-3)[Man(a1-6)]Man = target: Man(a1-3)[Man(a1-6)]Man
Outline: as §1

[5] = target: Man(a1-3)[Man(a1-6)]Man(a1-6)[Man(a1-3)]Man(b1-4)GlcNAc(b1-4)GlcNAc
Outline: as §1

[6] = target: Man(a1-3)[Man(a1-6)]Man(b1-4)GlcNAc(b1-4)GlcNAc
Outline: as §1

Man(b1-4)GlcNAc = target: Man(b1-4)GlcNAc
Outline: as §1

Neu5Ac(a2-3)Gal = target: Neu5Ac(a2-3)Gal
Outline: as §1

[7] = target: Neu5Ac(a2-3)Gal(b1-3)GalNAc
Outline: as §1

[8] = target: Neu5Ac(a2-3)Gal(b1-3)GalNAc(b1-3)Gal(a1-4)Gal(b1-4)Glc
Outline: as §1

[9] = target: Neu5Ac(a2-3)Gal(b1-3)GalNAc(b1-4)[Neu5Ac(a2-3)]Gal(b1-4)Glc
Outline: as §1

[10] = target: Neu5Ac(a2-3)Gal(b1-3)GalNAc6S
Outline: as §1

[11] = target: Neu5Ac(a2-3)Gal(b1-3)GlcNAc
Outline: as §1

[12] = target: Neu5Ac(a2-3)Gal(b1-3)GlcNAc(b1-3)Gal(b1-3)GlcNAc
Outline: as §1

[13] = target: Neu5Ac(a2-3)Gal(b1-3)GlcNAc(b1-3)Gal(b1-4)GlcNAc
Outline: as §1

[14] = target: Neu5Ac(a2-3)Gal(b1-3)GlcNAc6S
Outline: as §1

[15] = target: Neu5Ac(a2-3)Gal(b1-3)[Fuc(a1-4)]GlcNAc
Outline: as §1

[16] = target: Neu5Ac(a2-3)Gal(b1-3)[Fuc(a1-4)]GlcNAc(b1-3)Gal(b1-4)[Fuc(a1-3)]GlcNAc
Outline: as §1

[17] = target: Neu5Ac(a2-3)Gal(b1-3)[Neu5Ac(a2-3)Gal(b1-4)]GlcNAc
Outline: as §1

[18] = target: Neu5Ac(a2-3)Gal(b1-3)[Neu5Ac(a2-6)]GalNAc
Outline: as §1

Neu5Ac(a2-3)Gal(b1-4)Glc = target: Neu5Ac(a2-3)Gal(b1-4)Glc
Outline: as §1

[19] = target: Neu5Ac(a2-3)Gal(b1-4)GlcNAc
Outline: as §1

[20] = target: Neu5Ac(a2-3)Gal(b1-4)GlcNAc(b1-3)Gal(b1-3)GlcNAc
Outline: as §1

[21] = target: Neu5Ac(a2-3)Gal(b1-4)GlcNAc(b1-3)Gal(b1-4)GlcNAc
Outline: as §1

[22] = target: Neu5Ac(a2-3)Gal(b1-4)GlcNAc(b1-3)Gal(b1-4)GlcNAc(b1-3)Gal(b1-4)GlcNAc
Outline: as §1

[23] = target: Neu5Ac(a2-3)Gal(b1-4)GlcNAc(b1-3)Gal(b1-4)[Fuc(a1-3)]GlcNAc
Outline: as §1

[24] = target: Neu5Ac(a2-3)Gal(b1-4)GlcNAc(b1-6)[Gal(b1-3)]GalNAc
Outline: as §1

[25] = target: Neu5Ac(a2-3)Gal(b1-4)GlcNAc6S
Outline: as §1

[26] = target: Neu5Ac(a2-3)Gal(b1-4)[Fuc(a1-3)]GlcNAc
Outline: as §1

[27] = target: Neu5Ac(a2-3)Gal(b1-4)[Fuc(a1-3)]GlcNAc(b1-3)Gal
Outline: as §1

[28] = target: Neu5Ac(a2-3)Gal(b1-4)[Fuc(a1-3)]GlcNAc(b1-3)Gal(b1-4)GlcNAc
Outline: as §1

[29] = target: Neu5Ac(a2-3)Gal(b1-4)[Fuc(a1-3)]GlcNAc(b1-3)Gal(b1-4)[Fuc(a1-3)]GlcNAc(b1-3)Gal(b1-4)[Fuc(a1-3)]GlcNAc
Outline: as §1

[30] = target: Neu5Ac(a2-3)Gal(b1-4)[Fuc(a1-3)]GlcNAc6S
Outline: as §1

[31] = target: Neu5Ac(a2-3)Gal6S(b1-4)GlcNAc
Outline: as §1

[32] = target: Neu5Ac(a2-3)Gal6S(b1-4)[Fuc(a1-3)]GlcNAc
Outline: as §1

Neu5Ac(a2-3)GalNAc = target: Neu5Ac(a2-3)GalNAc
Outline: as §1

B1: FBG2 (Homo sapiens), Q9NRD1 (protein)
chain: MDAPHSKAALDSINELPENILLELFTHVPARQLLLNCRLVCSLWRDLIDLMTLWKRKCLREGFITKDWDQPVADWKIFYFLRSLHRNLLRNPCAEEDMFAWQIDFNGGDRWKVESLPGAHGTDFPDPKVKKYFVTSYEMCLKSQLVDLVAEGYWEELLDTFRPDIVVKDWFAARADCGCTYQLKVQLASADYFVLASFEPPPVTIQQWNNATWTEVSYTFSDYPRGVRYILFQHGGRDTQYWAGWYGPRVTNSSIVVSPKMTRNQASSEAQPGQKHGQEEAAQSPYRAVVQIFPPPVTIQQWNNATWTEVSYTFSDYPRGVRYILFQHGGRDTQYWAGWYGPRVTNSSIVVSPKMTRNQASSEAQPGQKHGQEEAAQSPYRAVVQI
- glycan array binding signal (z-score) [1]: -0.643
- glycan array binding signal (z-score) (Man(a1-2)Man(a1-3)Man): -0.732
- glycan array binding signal (z-score) [2]: -0.407
- glycan array binding signal (z-score) [3]: 2.99
- glycan array binding signal (z-score) [4]: 3.61
- glycan array binding signal (z-score) (Man(a1-3)[Man(a1-6)]Man): -0.683
- glycan array binding signal (z-score) [5]: 4.08
- glycan array binding signal (z-score) [6]: 3.91
- glycan array binding signal (z-score) (Man(b1-4)GlcNAc): -0.713
- glycan array binding signal (z-score) (Neu5Ac(a2-3)Gal): -0.674
- glycan array binding signal (z-score) [7]: -0.566
- glycan array binding signal (z-score) [8]: -0.559
- glycan array binding signal (z-score) [9]: -0.68
- glycan array binding signal (z-score) [10]: -0.328
- glycan array binding signal (z-score) [11]: -0.617
- glycan array binding signal (z-score) [12]: -0.304
- glycan array binding signal (z-score) [13]: -0.753
- glycan array binding signal (z-score) [14]: 0.495
- glycan array binding signal (z-score) [15]: -0.752
- glycan array binding signal (z-score) [16]: 0.115
- glycan array binding signal (z-score) [17]: -0.295
- glycan array binding signal (z-score) [18]: -0.275
- glycan array binding signal (z-score) (Neu5Ac(a2-3)Gal(b1-4)Glc): -0.668
- glycan array binding signal (z-score) [19]: -0.789
- glycan array binding signal (z-score) [20]: -0.687
- glycan array binding signal (z-score) [21]: -0.901
- glycan array binding signal (z-score) [22]: -0.717
- glycan array binding signal (z-score) [23]: -0.562
- glycan array binding signal (z-score) [24]: -0.612
- glycan array binding signal (z-score) [25]: 0.008
- glycan array binding signal (z-score) [26]: -0.597
- glycan array binding signal (z-score) [27]: -0.697
- glycan array binding signal (z-score) [28]: -0.464
- glycan array binding signal (z-score) [29]: -0.563
- glycan array binding signal (z-score) [30]: 0.245
- glycan array binding signal (z-score) [31]: 1.16
- glycan array binding signal (z-score) [32]: -0.589
- glycan array binding signal (z-score) (Neu5Ac(a2-3)GalNAc): -0.744
